Eight sequences from publication PMC6600395 can be followed below.

The comparison behind a weaker result is the experiment's own reference, which may not be listed here. For some assays here: Construct, isoform or probe ends are uncertain for at least one entry. For some assays here: At least one verdict rests on a figure or table, not on a statement of the authors.

Data set [1] has as its target p53CT (C-terminal segment) (human) (UniProt P04637). Nature of the data set: EMSA. The settings on record: weaker than non-B substrates, 50 ng pBSK/SmaI, EMSA: 5 mM Tris-HCl pH 7.6, 0.5 mM EDTA, 0.5 mM DTT, 0.01% Triton X-100, 50 mM KCl, 15 min on ice (agarose 4 °C), pBSK/SmaI competitor in PAGE EMSA, recombinant protein, residues 320-393. Background: A gel shift assay detects complexes by their altered migration in electrophoresis.

In data set [2] the target is p53 (wild type, full length) (human) (UniProt P04637). The experiment in a line: EMSA. The settings on record: EMSA: 5 mM Tris-HCl pH 7.6, 0.5 mM EDTA, 0.5 mM DTT, 0.01% Triton X-100, 50 mM KCl, 15 min on ice (agarose 4 °C), pBSK/SmaI competitor in PAGE EMSA, recombinant protein, residues 1-393, folded or branched DNA.
Data set [3] has the same target. Nature of the data set: ELISA. The settings on record: Kd only in figure, ELISA: same without EDTA, 4 °C, 20 min, recombinant protein, residues 1-393, folded or branched DNA. Background: An ELISA detects its analyte on a solid surface through an enzyme-linked reagent.
Data set [4] deals with p53CT (C-terminal segment) (human) (UniProt P04637). Nature of the data set: ELISA. The settings on record: 2 ng/well competitor, Kd only in figure, ELISA: same without EDTA, 4 °C, 20 min, recombinant protein, residues 320-393.

As to “ACCAGAGCTGATGGTATCCTAAGTTGACGACCCCGAGGGTGCCGCAAGGA (double strand) [NON]”, in data set [1] (label: 32P), the binding result is recorded as “binds more weakly”.
Take “GACGGTATCGATAAGAGACATGCCTAGACATGCCTCTTGATATCGAATTC (double strand) [CON (p53CON)]”: the binding result in data set [1] (label: 32P (EMSA), biotin (ELISA)) is “binds more weakly”.
Turning to “GGGGCCTTAGGTAAAAAAAAAAAAAAAAAAAAAAAAAAAAAAAAAAATGGTACCGCGG / CCGCGGTACCATTACCTAAGGCCCCAAC [ANB]”, the binding result is recorded as “binds more weakly” in data set [2] (weaker than TNB, 75 ng pBSK/SmaI competitor) and “binds more weakly” in data set [3] (lower affinity than TNB).
As for “GGGGCCTTAGGTAAAAAAATACAAAAAAAAAAAAAAAAGAAGAAGAAGAAGAAGAAAATAAAGAAAAATGGTACCGCGG / CCGCGGTACCATTACCTAAGGCCCCAAC [FXN-ANB]”, the binding result in data set [2] (weaker than TTCNB and FXN-TNB, 50 ng pBSK/SmaI, label: 5'-32P on Lock-F) is “binds more weakly”.
For “GGGGCCTTAGGTACAGCAGCAGCAGCAGCAGCAGCAGCAGCAGCAGATGGTACCGCGG / CCGCGGTACCATTACCTAAGGCCCCAAC [CAGNB]”, the binding result in data set [2] (weaker than CTGNB, 75 ng pBSK/SmaI competitor, label: 5'-32P on Lock-F) is “binds more weakly”.
In the case of “GGGGCCTTAGGTACTGCTGCTGCTGCTGCTGCTGCTGCTGCTGCTGATGGTACCGCGG / CCGCGGTACCATTACCTAAGGCCCCAAC [CTGNB]”, in data set [4] (folded or branched DNA), the binding result was “binds”.
For the sequence “GGGGCCTTAGGTAGAAGAAGAAGAAGAAGAAGAAGAAGAAGAAGAAATGGTACCGCGG / CCGCGGTACCATTACCTAAGGCCCCAAC [GAANB]”, the binding result is on record as “binds more weakly” in data set [2] (weaker than TTCNB, 75 ng pBSK/SmaI competitor); “binds more weakly” in data set [3] (lower affinity than TTCNB); “binds more weakly” in data set [4] (lower than TTCNB, folded or branched …).
In the case of “GGGGCCTTAGGTATTTTTTTTTTTTTTTTTTTTTTTTTTTTTTTTTATGGTACCGCGG / CCGCGGTACCATTACCTAAGGCCCCAAC [TNB]”, the binding result in data set [4] (folded or branched DNA) is recorded as “binds”.
